Source: PubChem BioAssay AID720505 (Drosophila RNAi Screening Center, 2013)
The deposit covers about 20,000 reagents; this is an unselected part of those that have a named target and a result. Of all reagents, about 2,100 (10%) are marked active. 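Raw plate signals without normalisation; calls rest on control-based scores that were not deposited; replicate 2 separates called from uncalled poorly.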 Names joined by + are all predicted targets of the reagent. Not stated in the record: the amount of reagent, the time to read-out.

Test: 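Fly regulators or components of the CRAC channel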 (primary screen)
System: Drosophila S2R+ cells
Knock-down reagent: long dsRNA against Drosophila genes
Conditions: thapsigargin (2 µM) in calcium-free buffer to empty internal stores, then 2 mM calcium added back
Detection: 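Stores emptied by 2 µM thapsigargin without calcium, then 2 mM calcium re-added; fluo-4 fluorescence followed by FLIPR in 384-well plates, per-well averaged endpoint, raw; two screen passes, some wells retested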
Direction: calcium signal: higher = more calcium entry after store depletion
Hit rule: 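Knock-downs counted as hits when calcium entry dropped relative to STIM1 positive and Rho1 negative controls present on each plate; roughly 1500 genes called, with reductions of differing size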
Meaning of the calls: active = called as lowering calcium entry; inactive = not called

CG30355 [DRSC21958] scored calcium signal, replicate 1 = 121; calcium signal, replicate 2 = 238; inactive.
With knock-down of CG32568 [DRSC19913], the screen gave calcium signal, replicate 1 = 95.8; calcium signal, replicate 2 = 122; inactive.
After knock-down of SmB [DRSC03437], the record shows calcium signal, replicate 1 = 59.1; calcium signal, replicate 2 = 81.2; active.
Alg12 [DRSC16416] showed calcium signal, replicate 1 = 165; calcium signal, replicate 2 = 111; inactive.
Silencing of cn [DRSC07594] came out at: calcium signal, replicate 1 = 107; calcium signal, replicate 2 = 196; inactive.
Depletion of AP-2alpha [DRSC00800] came out at: calcium signal, replicate 1 = 164; calcium signal, replicate 2 = 129; inactive.
Against pths [DRSC03171], the values are calcium signal, replicate 1 = 152; calcium signal, replicate 2 = 90.2; inactive.
hubl [DRSC06825] showed calcium signal, replicate 1 = 121; calcium signal, replicate 2 = 130; inactive.
Dsp1 [DRSC20315] gave calcium signal, replicate 1 = 66.9; calcium signal, replicate 2 = 51.7; active.
Against Dsp1 [DRSC23078], the entry reads calcium signal, replicate 1 = 103; calcium signal, replicate 2 = 95.5; inactive.
Silencing of Uch-L5R [DRSC19825] gave: calcium signal, replicate 1 = 126; calcium signal, replicate 2 = 93.3; inactive.
For bnb [DRSC20314], the values are calcium signal, replicate 1 = 165; calcium signal, replicate 2 = 105; inactive.
With knock-down of CR40282 [DRSC07814] the results were calcium signal, replicate 1 = 91.8; calcium signal, replicate 2 = 122; inactive.
Depletion of Nadsyn [DRSC20222] resulted in: calcium signal, replicate 1 = 131; calcium signal, replicate 2 = 132; inactive.
After knock-down of Calx [DRSC16599] the results were calcium signal, replicate 1 = 245; calcium signal, replicate 2 = 186; inactive.
With knock-down of Calx [DRSC21850] the results were calcium signal, replicate 1 = 99.7; calcium signal, replicate 2 = 166; inactive.
Knock-down of CG34112 [DRSC12235] came out at: calcium signal, replicate 1 = 112; calcium signal, replicate 2 = 163; inactive.
With knock-down of Nca [DRSC11233], the record shows calcium signal, replicate 1 = 85.6; calcium signal, replicate 2 = 126; inactive.
Depletion of CG32079 [DRSC22636] gave: calcium signal, replicate 1 = 116; calcium signal, replicate 2 = 209; inactive.
Knock-down of side-VI [DRSC12828] gave: inactive.
Depletion of side-VI [DRSC14920] gave: calcium signal, replicate 1 = 168; calcium signal, replicate 2 = 74.6; inactive.
After knock-down of side-VI [DRSC15624], the record shows calcium signal, replicate 1 = 194; calcium signal, replicate 2 = 72.8; inactive.
Silencing of side-VI [DRSC23088] gave: calcium signal, replicate 1 = 98.8; calcium signal, replicate 2 = 122; inactive.
CG42353 + CG42354 [DRSC23154] showed calcium signal, replicate 1 = 85.6; calcium signal, replicate 2 = 114; inactive.
CecB [DRSC16605] showed calcium signal, replicate 1 = 141; calcium signal, replicate 2 = 79.7; inactive.
For Dnali1 [DRSC16158] the deposit lists calcium signal, replicate 1 = 113; calcium signal, replicate 2 = 135; inactive.
After knock-down of CG1888 [DRSC06797], the screen gave calcium signal, replicate 1 = 151; calcium signal, replicate 2 = 183; inactive.
Depletion of TM4SF [DRSC04661] gave: calcium signal, replicate 1 = 97.3; calcium signal, replicate 2 = 129; inactive.
